From the supplement of paper PMC6411743
± gives the standard deviation of the averaged measurements. Some of the results follow.

Sequences of proteins named here, by UniProt entry; tags and fusion partners are left off. A change or cut given only in a name is not applied to a line headed by its entry.
UniProt Q9H2P0: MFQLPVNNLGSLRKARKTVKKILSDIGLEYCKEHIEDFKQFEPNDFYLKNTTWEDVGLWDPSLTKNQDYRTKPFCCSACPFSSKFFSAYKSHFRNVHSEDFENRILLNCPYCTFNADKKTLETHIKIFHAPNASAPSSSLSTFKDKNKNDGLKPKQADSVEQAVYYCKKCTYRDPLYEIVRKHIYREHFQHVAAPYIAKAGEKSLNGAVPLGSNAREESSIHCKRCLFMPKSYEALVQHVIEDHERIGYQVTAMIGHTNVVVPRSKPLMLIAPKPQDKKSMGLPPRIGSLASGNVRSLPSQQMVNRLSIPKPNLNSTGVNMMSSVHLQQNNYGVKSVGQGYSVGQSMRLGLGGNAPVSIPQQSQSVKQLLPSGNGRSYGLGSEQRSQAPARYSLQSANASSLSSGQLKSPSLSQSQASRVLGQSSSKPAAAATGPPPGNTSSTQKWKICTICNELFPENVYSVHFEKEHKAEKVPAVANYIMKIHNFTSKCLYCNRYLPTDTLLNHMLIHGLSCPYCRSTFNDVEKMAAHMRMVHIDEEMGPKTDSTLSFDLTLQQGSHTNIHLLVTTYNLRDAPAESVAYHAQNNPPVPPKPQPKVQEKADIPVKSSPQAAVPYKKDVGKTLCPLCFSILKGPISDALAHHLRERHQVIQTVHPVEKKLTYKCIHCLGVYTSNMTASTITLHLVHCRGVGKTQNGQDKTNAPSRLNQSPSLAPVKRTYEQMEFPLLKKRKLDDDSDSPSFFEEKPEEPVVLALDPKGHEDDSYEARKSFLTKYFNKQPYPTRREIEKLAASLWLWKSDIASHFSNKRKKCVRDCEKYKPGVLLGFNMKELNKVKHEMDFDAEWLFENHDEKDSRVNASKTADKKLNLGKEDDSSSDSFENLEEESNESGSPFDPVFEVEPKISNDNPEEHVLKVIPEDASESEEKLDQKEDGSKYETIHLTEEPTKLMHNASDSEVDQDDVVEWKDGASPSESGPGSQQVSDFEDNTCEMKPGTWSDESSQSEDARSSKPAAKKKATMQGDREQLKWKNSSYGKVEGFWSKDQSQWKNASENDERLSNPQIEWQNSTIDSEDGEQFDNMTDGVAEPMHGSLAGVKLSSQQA
UniProt Q9H173: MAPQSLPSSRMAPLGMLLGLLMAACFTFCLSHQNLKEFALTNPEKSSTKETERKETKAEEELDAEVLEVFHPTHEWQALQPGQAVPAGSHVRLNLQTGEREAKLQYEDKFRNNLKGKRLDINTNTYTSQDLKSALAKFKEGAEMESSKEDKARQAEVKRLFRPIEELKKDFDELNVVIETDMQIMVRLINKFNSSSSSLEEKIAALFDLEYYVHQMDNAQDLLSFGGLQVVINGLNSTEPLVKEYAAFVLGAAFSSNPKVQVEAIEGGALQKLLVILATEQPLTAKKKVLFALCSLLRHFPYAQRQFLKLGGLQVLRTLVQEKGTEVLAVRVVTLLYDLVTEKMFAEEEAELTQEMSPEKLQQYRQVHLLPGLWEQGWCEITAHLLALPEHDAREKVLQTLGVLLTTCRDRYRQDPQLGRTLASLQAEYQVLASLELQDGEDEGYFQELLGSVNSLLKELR
UniProt Q9H444: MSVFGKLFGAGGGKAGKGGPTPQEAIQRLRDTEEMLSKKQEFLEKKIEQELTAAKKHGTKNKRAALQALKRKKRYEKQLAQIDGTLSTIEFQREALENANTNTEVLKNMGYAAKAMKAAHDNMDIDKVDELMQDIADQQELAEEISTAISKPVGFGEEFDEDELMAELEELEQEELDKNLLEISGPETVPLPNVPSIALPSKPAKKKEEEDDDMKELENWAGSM
UniProt Q9H2F5, whole entry: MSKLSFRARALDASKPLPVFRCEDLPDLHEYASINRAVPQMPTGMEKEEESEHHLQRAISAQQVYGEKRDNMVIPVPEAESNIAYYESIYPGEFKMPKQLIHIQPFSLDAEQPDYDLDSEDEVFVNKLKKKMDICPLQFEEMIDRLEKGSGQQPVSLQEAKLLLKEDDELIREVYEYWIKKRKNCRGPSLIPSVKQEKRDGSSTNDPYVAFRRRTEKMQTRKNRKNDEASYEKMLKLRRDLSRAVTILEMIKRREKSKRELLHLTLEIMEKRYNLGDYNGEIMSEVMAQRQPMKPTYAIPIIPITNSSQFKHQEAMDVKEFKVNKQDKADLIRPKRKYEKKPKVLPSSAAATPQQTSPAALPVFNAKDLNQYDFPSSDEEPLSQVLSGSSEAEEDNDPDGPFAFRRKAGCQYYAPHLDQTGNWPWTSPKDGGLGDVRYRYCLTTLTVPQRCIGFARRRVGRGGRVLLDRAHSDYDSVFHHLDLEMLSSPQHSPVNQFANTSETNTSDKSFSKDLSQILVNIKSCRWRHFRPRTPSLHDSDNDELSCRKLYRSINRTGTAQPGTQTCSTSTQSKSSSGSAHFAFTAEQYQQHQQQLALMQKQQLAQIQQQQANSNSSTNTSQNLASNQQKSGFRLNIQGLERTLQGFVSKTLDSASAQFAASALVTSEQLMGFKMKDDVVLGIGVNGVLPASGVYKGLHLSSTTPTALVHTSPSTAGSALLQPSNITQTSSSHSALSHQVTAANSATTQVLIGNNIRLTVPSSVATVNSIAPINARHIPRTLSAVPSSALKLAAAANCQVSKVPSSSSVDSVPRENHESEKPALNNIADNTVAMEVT
UniProt Q9H7Z3: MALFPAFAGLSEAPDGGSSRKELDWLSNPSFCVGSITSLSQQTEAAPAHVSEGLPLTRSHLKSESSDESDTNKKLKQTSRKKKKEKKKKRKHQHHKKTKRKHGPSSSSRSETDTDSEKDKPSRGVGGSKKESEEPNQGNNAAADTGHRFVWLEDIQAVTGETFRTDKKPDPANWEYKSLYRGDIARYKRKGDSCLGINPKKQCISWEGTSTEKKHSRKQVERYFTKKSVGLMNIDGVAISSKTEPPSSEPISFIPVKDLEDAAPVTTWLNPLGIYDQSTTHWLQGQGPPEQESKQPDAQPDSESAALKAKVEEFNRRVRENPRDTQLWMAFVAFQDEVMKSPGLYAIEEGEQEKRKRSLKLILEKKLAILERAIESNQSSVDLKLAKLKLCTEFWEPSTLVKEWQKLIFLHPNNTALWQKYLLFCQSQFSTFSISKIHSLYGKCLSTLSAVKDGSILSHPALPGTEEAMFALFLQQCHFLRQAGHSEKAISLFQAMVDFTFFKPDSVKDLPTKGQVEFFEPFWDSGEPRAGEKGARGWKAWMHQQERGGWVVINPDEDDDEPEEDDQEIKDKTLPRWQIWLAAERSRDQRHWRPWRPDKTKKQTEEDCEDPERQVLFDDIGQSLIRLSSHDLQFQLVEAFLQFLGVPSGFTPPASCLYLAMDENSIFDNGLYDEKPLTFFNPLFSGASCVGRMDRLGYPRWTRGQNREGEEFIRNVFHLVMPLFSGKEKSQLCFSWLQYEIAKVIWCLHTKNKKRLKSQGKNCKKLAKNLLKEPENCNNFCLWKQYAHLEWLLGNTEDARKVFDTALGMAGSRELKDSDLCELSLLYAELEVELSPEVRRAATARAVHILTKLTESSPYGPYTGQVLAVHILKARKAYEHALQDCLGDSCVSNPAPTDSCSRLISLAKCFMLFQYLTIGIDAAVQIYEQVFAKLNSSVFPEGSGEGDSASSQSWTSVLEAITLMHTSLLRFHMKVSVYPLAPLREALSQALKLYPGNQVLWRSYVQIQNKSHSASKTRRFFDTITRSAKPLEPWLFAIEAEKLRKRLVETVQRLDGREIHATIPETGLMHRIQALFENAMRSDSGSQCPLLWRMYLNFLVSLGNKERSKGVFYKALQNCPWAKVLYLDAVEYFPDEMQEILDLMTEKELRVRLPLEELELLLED
UniProt Q9HCN8: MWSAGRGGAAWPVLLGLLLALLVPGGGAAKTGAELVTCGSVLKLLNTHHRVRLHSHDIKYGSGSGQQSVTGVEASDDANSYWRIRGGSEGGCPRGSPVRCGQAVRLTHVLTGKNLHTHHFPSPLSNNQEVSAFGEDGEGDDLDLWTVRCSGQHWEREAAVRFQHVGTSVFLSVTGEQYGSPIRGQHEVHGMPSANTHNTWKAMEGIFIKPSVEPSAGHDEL
UniProt Q9H582: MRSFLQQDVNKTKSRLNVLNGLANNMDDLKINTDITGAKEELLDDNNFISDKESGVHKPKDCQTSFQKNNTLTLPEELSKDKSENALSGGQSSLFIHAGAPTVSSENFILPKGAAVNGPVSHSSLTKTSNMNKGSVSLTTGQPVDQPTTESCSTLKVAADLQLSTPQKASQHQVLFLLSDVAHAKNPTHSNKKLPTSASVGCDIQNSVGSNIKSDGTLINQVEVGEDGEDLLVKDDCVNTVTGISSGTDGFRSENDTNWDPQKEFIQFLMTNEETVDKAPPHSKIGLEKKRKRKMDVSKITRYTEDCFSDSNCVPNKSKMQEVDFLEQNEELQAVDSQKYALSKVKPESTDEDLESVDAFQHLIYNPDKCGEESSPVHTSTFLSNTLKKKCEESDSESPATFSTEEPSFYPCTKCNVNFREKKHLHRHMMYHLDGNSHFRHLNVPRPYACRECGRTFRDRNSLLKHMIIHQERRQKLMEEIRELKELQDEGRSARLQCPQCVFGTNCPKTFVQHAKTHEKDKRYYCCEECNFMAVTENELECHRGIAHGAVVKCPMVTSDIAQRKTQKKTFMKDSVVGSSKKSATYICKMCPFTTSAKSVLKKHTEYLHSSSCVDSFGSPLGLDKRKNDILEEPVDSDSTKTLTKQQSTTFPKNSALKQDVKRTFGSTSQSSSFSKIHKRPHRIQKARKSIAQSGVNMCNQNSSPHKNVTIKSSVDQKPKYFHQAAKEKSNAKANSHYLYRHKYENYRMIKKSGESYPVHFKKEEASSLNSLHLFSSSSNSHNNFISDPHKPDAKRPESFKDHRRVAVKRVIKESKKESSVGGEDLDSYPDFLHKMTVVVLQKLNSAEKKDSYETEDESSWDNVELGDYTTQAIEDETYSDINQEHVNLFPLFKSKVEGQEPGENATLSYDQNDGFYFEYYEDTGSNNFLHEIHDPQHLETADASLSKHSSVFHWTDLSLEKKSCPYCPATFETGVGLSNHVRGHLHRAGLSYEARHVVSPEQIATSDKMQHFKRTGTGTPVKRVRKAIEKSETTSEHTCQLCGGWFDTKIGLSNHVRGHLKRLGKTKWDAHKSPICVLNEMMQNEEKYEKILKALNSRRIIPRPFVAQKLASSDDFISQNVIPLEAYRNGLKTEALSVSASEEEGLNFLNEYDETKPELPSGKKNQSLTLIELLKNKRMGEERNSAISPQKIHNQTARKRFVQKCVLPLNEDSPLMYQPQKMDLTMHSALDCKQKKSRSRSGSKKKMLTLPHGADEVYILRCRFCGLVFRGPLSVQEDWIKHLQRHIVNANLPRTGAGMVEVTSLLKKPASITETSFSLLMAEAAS
UniProt Q9NTX5: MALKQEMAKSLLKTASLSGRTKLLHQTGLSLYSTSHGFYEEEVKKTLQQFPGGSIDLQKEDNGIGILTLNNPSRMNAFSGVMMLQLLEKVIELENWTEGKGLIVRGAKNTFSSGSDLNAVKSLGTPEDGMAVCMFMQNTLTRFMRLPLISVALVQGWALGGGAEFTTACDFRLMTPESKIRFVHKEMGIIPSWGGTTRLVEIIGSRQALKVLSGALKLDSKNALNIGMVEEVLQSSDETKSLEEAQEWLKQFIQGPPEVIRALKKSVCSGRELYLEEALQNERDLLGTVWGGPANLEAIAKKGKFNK
UniProt Q9NRD1: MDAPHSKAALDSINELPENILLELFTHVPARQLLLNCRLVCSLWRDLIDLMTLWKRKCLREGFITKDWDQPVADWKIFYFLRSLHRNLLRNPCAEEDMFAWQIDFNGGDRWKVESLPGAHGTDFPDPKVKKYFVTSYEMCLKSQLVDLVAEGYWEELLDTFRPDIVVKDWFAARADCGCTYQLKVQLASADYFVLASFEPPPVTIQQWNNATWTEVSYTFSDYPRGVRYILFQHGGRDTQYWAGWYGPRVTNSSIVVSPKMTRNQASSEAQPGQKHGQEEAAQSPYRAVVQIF
UniProt Q9NQG5: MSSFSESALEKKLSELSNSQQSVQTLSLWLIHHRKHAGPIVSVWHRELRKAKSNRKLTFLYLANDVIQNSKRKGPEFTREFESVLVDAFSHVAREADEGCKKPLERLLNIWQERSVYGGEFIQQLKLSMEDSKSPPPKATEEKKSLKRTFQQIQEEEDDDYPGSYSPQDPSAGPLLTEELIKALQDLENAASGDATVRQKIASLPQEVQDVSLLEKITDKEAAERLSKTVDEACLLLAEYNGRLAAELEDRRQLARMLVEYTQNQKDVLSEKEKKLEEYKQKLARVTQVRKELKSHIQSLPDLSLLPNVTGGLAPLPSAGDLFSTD

Compound: Nc1nc2c(ncn2[C@@H]2O[C@H](COP(=O)(O)OP(=O)(O)OP(=O)(O)O)[C@@H](O)[C@H]2O)c(=O)[nH]1 [guanosine triphosphate]
Assay: NP40-soluble protein abundance relative to vehicle (solubility fold change) (ratio); higher = more soluble protein in presence of GTP
In short: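 Each value is a fold change relative to the detergent-processed vehicle, calculated per replicate from vsn-normalised intensities. Jurkat crude lysate received eight concentrations (0.1 to 10 mM) for 10 min at room temperature and 3 min at 37 °C, then was solubilised in 0.8% NP40 with benzonase (60 min, 4 °C). The ultracentrifuged supernatant was TMT-labelled and run by LC-MS/MS in three independent experiments.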

Row | Target | NP40-soluble protein abundance (concentration: 0.1mM) | NP40-soluble protein abundance (concentration: 0.5mM) | NP40-soluble protein abundance (concentration: 1mM) | NP40-soluble protein abundance (concentration: 2mM) | NP40-soluble protein abundance (concentration: 4mM) | NP40-soluble protein abundance (concentration: 6mM) | NP40-soluble protein abundance (concentration: 8mM) | NP40-soluble protein abundance (concentration: 10mM)
1 | RPAP3 (UniProt Q9H6T3) | 0.985 ± 0.032 | 1.02 ± 0.037 | 1.04 ± 0.02 | 1.04 ± 0.04 | 1.05 ± 0.039 | 1.06 ± 0.041 | 1.1 ± 0.077 | 1.07 ± 0.08
2 | ADNP (UniProt Q9H2P0) | 1.02 ± 0.021 | 1.05 ± 0.055 | 1.09 ± 0.059 | 1.14 ± 0.058 | 1.18 ± 0.1 | 1.22 ± 0.12 | 1.27 ± 0.14 | 1.25 ± 0.14
3 | UniProt Q9H8M2 and related entries | 0.966 ± 0.054 | 1.05 ± 0.13 | 1.03 ± 0.085 | 0.995 ± 0.033 | 1.04 ± 0.11 | 1.13 ± 0.12 | 1.11 ± 0.029 | 1.09 ± 0.04
4 | FAM117A (UniProt Q9C073) | 1.31 ± 0.14 | 0.983 ± 0.018 | 1.28 ± 0.084 | 1.03 ± 0.024 | 1.1204 ± 7.8e-05 | 1.02 ± 0.037 | 1.1 ± 0.056 | 1.12 ± 0.086
5 | UniProt Q9H974 and related entries | 1.01 ± 0.07 | 1 ± 0.05 | 0.912 ± 0.012 | 0.923 ± 0.025 | 0.923 ± 0.033 | 0.92 ± 0.031 | 0.871 ± 0.064 | 0.852 ± 0.11
6 | BIRC6 (UniProt Q9NR09) | 1.04 ± 0.096 | 1.12 ± 0.15 | 1.15 ± 0.14 | 1.21 ± 0.17 | 1.19 ± 0.2 | 1.19 ± 0.22 | 1.17 ± 0.22 | 1.14 ± 0.18
7 | UniProt Q9HD26 and related entries | 0.942 ± 0.059 | 0.935 ± 0.063 | 0.926 ± 0.036 | 0.923 ± 0.066 | 0.922 ± 0.038 | 0.922 ± 0.076 | 0.902 ± 0.072 | 0.881 ± 0.049
8 | EXOSC5 (UniProt Q9NQT4) | 1.08 ± 0.037 | 1.01 ± 0.087 | 1.03 ± 0.051 | 1.17 ± 0.085 | 1.22 ± 0.055 | 1.3 ± 0.037 | 1.34 ± 0.1 | 1.33 ± 0.085
9 | UniProt Q9H173 and related entries | 0.901 ± 0.014 | 0.891 ± 0.046 | 0.955 ± 0.03 | 1.02 ± 0.037 | 0.917 ± 0.025 | 0.898 ± 0.1 | 0.893 ± 0.061 | 0.9143 ± 0.0027
10 | CUTC (UniProt Q9NTM9) | 1.04 ± 0.1 | 1.05 ± 0.11 | 0.904 ± 0.061 | 0.944 ± 0.11 | 0.932 ± 0.079 | 0.913 ± 0.075 | 0.863 ± 0.026 | 0.861 ± 0.066
11 | UniProt Q9NRW7 and related entries | 1.02 ± 0.033 | 1 ± 0.049 | 0.9449 ± 0.0091 | 0.936 ± 0.027 | 0.915 ± 0.033 | 0.9257 ± 0.0027 | 0.894 ± 0.027 | 0.858 ± 0.059
12 | WDR33 (UniProt Q9C0J8) | 1.04 ± 0.028 | 1.07 ± 0.043 | 1.17 ± 0.044 | 1.23 ± 0.059 | 1.34 ± 0.071 | 1.36 ± 0.1 | 1.46 ± 0.15 | 1.45 ± 0.2
13 | UniProt Q9NQ66 and related entries | 1.03 ± 0.044 | 1.04 ± 0.046 | 1.01 ± 0.12 | 0.994 ± 0.082 | 0.977 ± 0.095 | 0.966 ± 0.086 | 0.989 ± 0.066 | 0.968 ± 0.095
14 | FAM114A2 (UniProt Q9NRY5) | 0.951 ± 0.06 | 0.918 ± 0.067 | 0.958 ± 0.056 | 0.914 ± 0.082 | 0.876 ± 0.061 | 0.886 ± 0.12 | 0.894 ± 0.072 | 0.904 ± 0.059
15 | PFDN4 (UniProt Q9NQP4) | 0.931 ± 0.062 | 0.953 ± 0.13 | 1.01 ± 0.12 | 0.944 ± 0.12 | 0.939 ± 0.18 | 0.941 ± 0.16 | 0.958 ± 0.12 | 0.977 ± 0.15
16 | CHMP4B (UniProt Q9H444) | 1.03 ± 0.047 | 1.03 ± 0.037 | 1.09 ± 0.041 | 1.05 ± 0.062 | 1.02 ± 0.077 | 1.06 ± 0.13 | 1.16 ± 0.035 | 1.16 ± 0.033
17 | UniProt Q9H5V9 and related entries | 0.962 ± 0.014 | 0.9579 ± 0.0087 | 0.969 ± 0.056 | 0.945 ± 0.075 | 0.956 ± 0.078 | 1.01 ± 0.075 | 1.011 ± 0.0095 | 1.02 ± 0.081
18 | UniProt Q9H3H1 and related entries | 1.08 ± 0.12 | 1.11 ± 0.18 | 1.25 ± 0.12 | 1.14 ± 0.074 | 1.07 ± 0.096 | 1.17 ± 0.15 | 1.24 ± 0.24 | 1.09 ± 0.12
19 | UniProt Q9H2F5 and related entries | 1.22 ± 0.22 | 1.29 ± 0.34 | 1.16 ± 0.17 | 1.31 ± 0.27 | 1.45 ± 0.39 | 1.44 ± 0.56 | 1.41 ± 0.51 | 1.55 ± 0.68
20 | UniProt Q9H7Z3 | 1.08 ± 0.076 | 1.17 ± 0.024 | 1.03 ± 0.032 | 1.13 ± 0.054 | 1.23 ± 0.12 | 1.254 ± 0.0074 | 1.21 ± 0.045 | 1.15 ± 0.049
21 | UniProt Q9NRY4 | 1.09 ± 0.049 | 1.03 ± 0.058 | 1.04 ± 0.041 | 1.04 ± 0.039 | 1.02 ± 0.044 | 1.03 ± 0.017 | 0.954 ± 0.062 | 0.952 ± 0.044
22 | SDF2L1 (UniProt Q9HCN8) | 0.97 ± 0.078 | 0.987 ± 0.081 | 0.973 ± 0.052 | 0.966 ± 0.084 | 0.986 ± 0.091 | 0.98 ± 0.096 | 0.98 ± 0.12 | 0.956 ± 0.094
23 | UniProt Q9HCN4 and related entries | 0.963 ± 0.054 | 1.01 ± 0.071 | 0.983 ± 0.023 | 0.983 ± 0.053 | 0.97 ± 0.037 | 0.972 ± 0.044 | 0.942 ± 0.033 | 0.962 ± 0.029
24 | CCDC134 (UniProt Q9H6E4) | 0.934 ± 0.071 | 0.893 ± 0.1 | 0.944 ± 0.089 | 0.911 ± 0.087 | 0.905 ± 0.077 | 0.881 ± 0.084 | 0.869 ± 0.1 | 0.86 ± 0.091
25 | UniProt Q9H944 and related entries | 1 ± 0.046 | 1.01 ± 0.05 | 0.928 ± 0.034 | 0.984 ± 0.019 | 0.976 ± 0.025 | 0.986 ± 0.029 | 0.9381 ± 0.0083 | 0.934 ± 0.029
26 | UniProt Q9GZY4 | 1.02 ± 0.048 | 1.04 ± 0.081 | 0.998 ± 0.051 | 0.973 ± 0.1 | 0.971 ± 0.079 | 0.994 ± 0.11 | 0.988 ± 0.092 | 0.94 ± 0.061
27 | UniProt Q9H582 and related entries | 1.27 ± 0.24 | 1.17 ± 0.22 | 1.15 ± 0.053 | 1.091 ± 0.0033 | 1.14 ± 0.02 | 1.27 ± 0.11 | 1.12 ± 0.081 | 1.26 ± 0.14
28 | UniProt Q9NTX5 and related entries | 1.03 ± 0.025 | 1 ± 0.032 | 0.9594 ± 0.0043 | 0.9362 ± 0.0029 | 0.922 ± 0.032 | 0.918 ± 0.022 | 0.916 ± 0.01 | 0.903 ± 0.02
29 | FBXO6 (UniProt Q9NRD1) | 1.17 ± 0.17 | 1.07 ± 0.033 | 1.13 ± 0.062 | 1.03 ± 0.025 | 1.08 ± 0.13 | 0.969 ± 0.14 | 0.965 ± 0.17 | 1.05 ± 0.17
30 | RPRD1B (UniProt Q9NQG5) | 0.862 ± 0.12 | 0.787 ± 0.09 | 1.09 ± 0.1 | 1.07 ± 0.051 | 1.09 ± 0.072 | 1.08 ± 0.07 | 0.93 ± 0.2 | 1.16 ± 0.13

An excerpt from above, showing only NP40-soluble protein abundance (concentration: 1mM), NP40-soluble protein abundance (concentration: 4mM) and NP40-soluble protein abundance (concentration: 10mM):
Row,Target,NP40-soluble protein abundance (concentration: 1mM),NP40-soluble protein abundance (concentration: 4mM),NP40-soluble protein abundance (concentration: 10mM)
7,UniProt Q9HD26 and related entries,0.926 ± 0.036,0.922 ± 0.038,0.881 ± 0.049
8,EXOSC5 (UniProt Q9NQT4),1.03 ± 0.051,1.22 ± 0.055,1.33 ± 0.085
